These are yes or no findings as the source states them, for the method shown. Binding seen in cells or lysates may run through a third protein. These calls come from enrichment with a bait or labelling near it, and not all partners need be listed. A no says only that the protein was not detected with the bait.

By UniProt entry, the sequences of proteins in these tests, tags left out.
UniProt P11387: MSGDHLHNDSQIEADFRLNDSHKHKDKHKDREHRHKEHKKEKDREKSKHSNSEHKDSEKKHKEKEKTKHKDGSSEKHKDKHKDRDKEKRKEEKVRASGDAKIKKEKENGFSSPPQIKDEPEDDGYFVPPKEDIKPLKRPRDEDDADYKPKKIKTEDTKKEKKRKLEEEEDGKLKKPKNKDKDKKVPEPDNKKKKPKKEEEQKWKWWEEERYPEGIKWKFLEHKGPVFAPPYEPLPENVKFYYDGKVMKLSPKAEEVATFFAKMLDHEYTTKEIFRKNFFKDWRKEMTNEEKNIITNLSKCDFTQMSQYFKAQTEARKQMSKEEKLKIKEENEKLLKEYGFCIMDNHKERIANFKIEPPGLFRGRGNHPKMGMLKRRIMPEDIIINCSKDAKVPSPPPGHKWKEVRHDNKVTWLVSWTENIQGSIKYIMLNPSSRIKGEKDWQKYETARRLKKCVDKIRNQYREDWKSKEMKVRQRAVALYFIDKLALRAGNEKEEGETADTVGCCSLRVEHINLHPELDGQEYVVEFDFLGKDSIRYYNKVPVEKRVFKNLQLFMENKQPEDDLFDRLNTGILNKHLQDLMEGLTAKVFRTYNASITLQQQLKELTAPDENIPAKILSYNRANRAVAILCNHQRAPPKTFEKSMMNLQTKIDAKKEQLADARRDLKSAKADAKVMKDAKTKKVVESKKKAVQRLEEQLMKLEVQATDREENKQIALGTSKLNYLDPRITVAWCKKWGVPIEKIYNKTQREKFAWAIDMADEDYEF
UniProt P12956: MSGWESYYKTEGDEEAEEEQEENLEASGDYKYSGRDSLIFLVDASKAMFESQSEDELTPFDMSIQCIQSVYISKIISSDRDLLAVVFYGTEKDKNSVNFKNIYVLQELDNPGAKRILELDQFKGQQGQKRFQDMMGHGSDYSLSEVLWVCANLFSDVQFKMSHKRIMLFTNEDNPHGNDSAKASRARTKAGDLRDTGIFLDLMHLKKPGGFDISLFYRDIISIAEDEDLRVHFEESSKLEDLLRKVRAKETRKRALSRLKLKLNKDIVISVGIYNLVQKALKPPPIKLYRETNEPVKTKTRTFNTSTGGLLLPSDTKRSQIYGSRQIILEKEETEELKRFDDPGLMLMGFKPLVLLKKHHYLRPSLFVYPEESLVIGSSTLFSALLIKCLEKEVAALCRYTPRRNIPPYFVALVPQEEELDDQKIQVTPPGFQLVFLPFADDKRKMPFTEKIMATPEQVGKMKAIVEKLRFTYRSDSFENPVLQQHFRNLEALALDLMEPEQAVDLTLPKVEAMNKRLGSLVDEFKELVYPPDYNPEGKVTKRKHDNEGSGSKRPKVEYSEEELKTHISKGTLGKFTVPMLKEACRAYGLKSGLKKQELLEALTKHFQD
UniProt Q13535: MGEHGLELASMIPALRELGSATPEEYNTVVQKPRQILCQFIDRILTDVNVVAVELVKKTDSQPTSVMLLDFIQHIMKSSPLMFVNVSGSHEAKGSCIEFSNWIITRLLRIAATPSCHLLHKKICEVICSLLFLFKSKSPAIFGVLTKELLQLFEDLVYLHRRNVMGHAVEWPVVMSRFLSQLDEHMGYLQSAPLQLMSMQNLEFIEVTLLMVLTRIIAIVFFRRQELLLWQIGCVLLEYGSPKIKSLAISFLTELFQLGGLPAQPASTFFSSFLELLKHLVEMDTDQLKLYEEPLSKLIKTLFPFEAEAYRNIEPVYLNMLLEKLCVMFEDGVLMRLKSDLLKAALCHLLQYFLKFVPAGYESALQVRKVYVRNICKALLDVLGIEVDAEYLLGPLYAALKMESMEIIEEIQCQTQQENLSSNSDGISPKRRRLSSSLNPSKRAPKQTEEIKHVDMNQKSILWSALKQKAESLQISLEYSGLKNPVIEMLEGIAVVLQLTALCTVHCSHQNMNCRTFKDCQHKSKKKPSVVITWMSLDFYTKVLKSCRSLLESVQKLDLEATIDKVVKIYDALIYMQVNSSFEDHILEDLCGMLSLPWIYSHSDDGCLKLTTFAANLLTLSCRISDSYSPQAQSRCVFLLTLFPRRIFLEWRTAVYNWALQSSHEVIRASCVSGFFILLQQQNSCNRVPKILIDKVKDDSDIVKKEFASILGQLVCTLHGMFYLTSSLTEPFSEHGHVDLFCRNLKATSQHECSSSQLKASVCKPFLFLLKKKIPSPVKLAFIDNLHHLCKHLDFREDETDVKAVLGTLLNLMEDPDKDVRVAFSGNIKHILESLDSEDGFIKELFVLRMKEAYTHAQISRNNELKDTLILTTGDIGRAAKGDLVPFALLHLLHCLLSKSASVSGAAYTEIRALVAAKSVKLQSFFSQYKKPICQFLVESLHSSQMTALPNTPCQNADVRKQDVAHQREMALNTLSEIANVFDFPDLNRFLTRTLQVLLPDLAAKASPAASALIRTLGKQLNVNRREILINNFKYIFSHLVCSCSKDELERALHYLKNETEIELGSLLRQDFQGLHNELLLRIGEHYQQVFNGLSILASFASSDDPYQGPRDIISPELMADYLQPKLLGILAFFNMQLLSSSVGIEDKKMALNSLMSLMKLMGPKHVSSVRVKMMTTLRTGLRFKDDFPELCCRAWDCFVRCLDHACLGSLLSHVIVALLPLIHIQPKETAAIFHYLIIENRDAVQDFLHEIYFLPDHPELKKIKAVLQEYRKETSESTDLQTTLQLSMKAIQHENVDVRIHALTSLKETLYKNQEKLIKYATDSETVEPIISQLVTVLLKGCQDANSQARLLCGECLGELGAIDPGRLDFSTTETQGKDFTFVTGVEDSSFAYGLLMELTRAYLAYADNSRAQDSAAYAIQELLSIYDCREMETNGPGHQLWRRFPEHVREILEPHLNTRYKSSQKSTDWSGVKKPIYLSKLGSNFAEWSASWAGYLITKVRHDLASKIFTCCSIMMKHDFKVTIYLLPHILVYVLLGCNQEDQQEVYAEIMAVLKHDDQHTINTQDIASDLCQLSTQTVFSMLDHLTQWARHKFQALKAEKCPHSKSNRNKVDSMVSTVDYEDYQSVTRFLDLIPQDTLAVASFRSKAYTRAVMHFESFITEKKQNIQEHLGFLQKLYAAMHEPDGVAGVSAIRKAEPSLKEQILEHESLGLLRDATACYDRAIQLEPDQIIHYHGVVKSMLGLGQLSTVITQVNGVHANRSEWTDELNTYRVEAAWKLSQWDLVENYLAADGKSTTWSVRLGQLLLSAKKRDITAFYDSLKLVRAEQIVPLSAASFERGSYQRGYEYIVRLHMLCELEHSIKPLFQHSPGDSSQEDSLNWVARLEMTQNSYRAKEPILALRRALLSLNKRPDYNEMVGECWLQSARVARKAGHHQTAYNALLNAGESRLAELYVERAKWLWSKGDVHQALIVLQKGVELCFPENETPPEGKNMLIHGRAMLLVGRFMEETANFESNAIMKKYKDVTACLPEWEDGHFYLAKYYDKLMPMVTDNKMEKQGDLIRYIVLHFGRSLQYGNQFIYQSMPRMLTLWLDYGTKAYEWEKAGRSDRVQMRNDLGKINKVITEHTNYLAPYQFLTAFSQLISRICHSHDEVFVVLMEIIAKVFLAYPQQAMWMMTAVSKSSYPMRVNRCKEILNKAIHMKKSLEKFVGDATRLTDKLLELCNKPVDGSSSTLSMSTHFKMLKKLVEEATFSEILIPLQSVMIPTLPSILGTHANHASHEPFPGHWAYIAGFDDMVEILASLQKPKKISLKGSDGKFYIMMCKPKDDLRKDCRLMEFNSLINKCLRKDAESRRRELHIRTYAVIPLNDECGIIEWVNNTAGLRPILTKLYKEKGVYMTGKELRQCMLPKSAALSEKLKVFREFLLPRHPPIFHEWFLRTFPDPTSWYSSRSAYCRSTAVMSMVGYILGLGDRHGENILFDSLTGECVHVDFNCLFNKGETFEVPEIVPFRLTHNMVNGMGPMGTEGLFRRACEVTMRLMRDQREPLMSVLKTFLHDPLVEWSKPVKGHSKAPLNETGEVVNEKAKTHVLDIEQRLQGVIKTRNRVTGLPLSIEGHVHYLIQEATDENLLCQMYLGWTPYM

This assay addresses S-Tax-GFP (HTLV-1) (UniProt P03409). Nature of the assay: affinity purification with mass spectrometry; S-Tax-GFP bound to S-agarose beads incubated with pre-cleared Jurkat nuclear lysate, 4°C, 60 minutes, 25 mM HEPES pH 7.5, 150 mM NaCl, 1% NP-40, 10 mM MgCl2, 1 mM EDTA, 1% glycerol; on-bead trypsin digest, LC-MS/MS; three runs combined; S-GFP beads as control; only the target purified.
As to TOP1 (from UniProt P11387 1-765), the binding entry is reported as “binds”.

Regarding Vimentin (from UniProt P08670 1-466), the binding entry is recorded as “binds”. On to XRCC6 (from UniProt P12956 1-609), for which the binding result is “binds”. Regarding ATR (from UniProt Q13535 1-2644), the binding entry is “no binding”. In the case of “DNA-dependent Protein Kinase catalytic subunit (DNA-PKcs) (from UniProt P78527 1-4128)”, the binding entry was “binds”. Consider PARP (from UniProt P09874 1-1014), for which the binding entry is on record as “binds”.

The record behind these values is article PMC2576351.
